Assay results taken from patent publication US20170119727A1, “A THERAPEUTIC PROTOCOL FOR TREATING OVARIAN CANCER” (Bionomics Limited, priority 2014, published 2017).

Tested on: ferritin, interleukin-8, interleukin-16 and macrophage inflammatory protein-1β
Experiment: Phase I clinical trial: plasma biomarker studies
Assay type: in vivo, female ovarian cancer subjects (patients)
Conditions: following Example 2 at 12 mg/m^2; relative to pre-treatment baseline

COc1cc(C(=O)c2c(C)oc3c(OP(=O)([O-])[O-])c(OC)ccc23)cc(OC)c1OC.[Na+].[Na+] [Example 2, Disodium 6-methoxy-2-methyl-3-(3,4,5-trimethoxybenzoyl)benzofuran-7-yl phosphate]
increase significantly and transiently: Plasma concentration of ferritin | Plasma concentration of interleukin-8 | Plasma concentration of interleukin-16 | Plasma concentration of macrophage inflammatory protein-1β
